Laboratory results taken from paper PMC3078936.
No constants are given. Whether binding was seen depends on the method and setting. Some results given as binding are weak or reduced against the parent protein; the word gives no strength. Where a sequence is shown, tags or fusion partners need not be part of it.

The chains behind the UniProt entries cited, without tags or fusion partners.
UniProt P63167: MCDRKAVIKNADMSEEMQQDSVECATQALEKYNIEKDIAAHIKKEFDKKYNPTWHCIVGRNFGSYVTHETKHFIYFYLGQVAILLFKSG

Molecular target: GST-fused DYNLL1 (human (from the printed UniProt accession)) (UniProt P63167)
Assay: ELISA; phage-ELISA, GST-fused DYNLL1 immobilised, peptide displayed on phage without Leu-zipper; data not shown; only the target purified

B1: Flag-tagged Bmf peptide (EDKATQTL) displayed monovalently on the M13 p3 coat protein (peptide)
chain: EDKATQTL
  binding: binds weakly

B2: Flag-tagged Bmf peptide (EDKATQTL) displayed multivalently on the M13 p8 coat protein (peptide)
chain: EDKATQTL
  binding: binds weakly
